No constants are given. Whether binding was seen depends on the method and setting. Binding seen in cells or lysates may run through a third protein. Here binding means that the protein was enriched with, or labelled near, the bait; the list need not be complete.

The experiment has as its target C-terminally myc-tagged TbPam27 (Trypanosoma brucei) (UniProt Q388L6). Description: affinity purification with mass spectrometry.
In the case of Tb927.11.1010 (from UniProt Q387E9), the binding entry was “binds”.

On to Tb927.11.16750 (from UniProt Q381B1), for which the binding entry is “binds”.

Regarding Tb927.8.3450 (from UniProt Q57YW8), the binding result was “binds”.

With “TbTim20 (Tb927.11.1620) (from UniProt Q386Z2)”, the binding result is “binds”.

As for “TbTim15 (Tb927.2.4445) (from UniProt Q586P9)”, the binding entry is “binds”.

Consider Tb927.8.7010 (from UniProt Q57YQ8), for which the binding entry is listed as “binds”.

These data come from article doi:10.1101/2024.01.31.578135.
